Assay results from article PMC9441001.
These are yes or no findings as the source states them, for the method shown. Binding seen in cells or lysates may run through a third protein. Some results given as binding are weak or reduced against the parent protein; the word gives no strength. For part of these data: Tags and fused reporters may be left off the sequences shown.

Sequences of proteins named here, by UniProt entry; tags and fusion partners are left off.
UniProt P63104: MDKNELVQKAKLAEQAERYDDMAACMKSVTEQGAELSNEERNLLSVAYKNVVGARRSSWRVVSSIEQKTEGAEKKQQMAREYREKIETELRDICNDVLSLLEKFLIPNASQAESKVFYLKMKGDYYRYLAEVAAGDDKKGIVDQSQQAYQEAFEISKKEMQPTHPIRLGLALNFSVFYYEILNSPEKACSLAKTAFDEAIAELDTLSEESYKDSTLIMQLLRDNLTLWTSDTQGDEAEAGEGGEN
UniProt P62258: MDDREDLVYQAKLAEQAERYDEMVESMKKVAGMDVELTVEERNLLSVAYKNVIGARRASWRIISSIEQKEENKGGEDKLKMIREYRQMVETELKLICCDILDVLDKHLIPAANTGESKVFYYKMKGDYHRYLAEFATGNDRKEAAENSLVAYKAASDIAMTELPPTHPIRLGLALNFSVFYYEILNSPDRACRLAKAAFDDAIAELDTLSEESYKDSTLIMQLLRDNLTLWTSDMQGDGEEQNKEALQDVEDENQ

Experiments:
GST-Kaiso (human) = target: T1, GST-Kaiso (human) (UniProt Q86T24); test: pull-down; GST-Kaiso and Flag-14-3-3 members co-transfected in MGC803 cells; lysate incubated with Glutathione Sepharose beads at 4 °C overnight, six washes; blots with GST and Flag antibodies
T1 sequence: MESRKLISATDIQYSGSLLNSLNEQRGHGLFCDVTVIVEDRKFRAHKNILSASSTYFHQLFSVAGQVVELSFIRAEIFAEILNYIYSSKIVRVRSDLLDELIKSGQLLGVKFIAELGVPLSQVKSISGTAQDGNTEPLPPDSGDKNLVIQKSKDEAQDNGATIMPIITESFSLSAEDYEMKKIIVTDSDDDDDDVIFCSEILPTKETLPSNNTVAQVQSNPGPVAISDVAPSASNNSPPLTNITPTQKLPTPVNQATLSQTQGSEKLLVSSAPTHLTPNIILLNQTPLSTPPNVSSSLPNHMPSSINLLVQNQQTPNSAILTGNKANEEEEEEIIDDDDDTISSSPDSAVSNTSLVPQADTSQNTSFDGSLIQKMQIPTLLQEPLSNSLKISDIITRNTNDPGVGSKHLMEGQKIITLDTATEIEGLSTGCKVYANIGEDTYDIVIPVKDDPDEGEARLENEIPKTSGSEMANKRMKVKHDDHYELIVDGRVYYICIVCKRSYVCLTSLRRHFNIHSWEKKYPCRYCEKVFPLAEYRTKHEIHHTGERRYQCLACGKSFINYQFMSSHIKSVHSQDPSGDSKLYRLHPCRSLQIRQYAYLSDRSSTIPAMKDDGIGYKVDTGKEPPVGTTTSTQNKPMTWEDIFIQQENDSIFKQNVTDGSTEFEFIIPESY

[1] = target: T2, endogenous Kaiso (human (endogenous in MGC803)) (UniProt Q86T24); test: co-IP; endogenous proteins, whole cell lysate of MGC803 cells (for P120ctn with and without 14-3-3σ overexpression); anti-Kaiso or other antibodies plus protein A/G Sepharose overnight at 4 °C, six washes; IgG as negative control
T2 sequence: T1 sequence

[2] = target: T2, endogenous Kaiso (human (endogenous in MGC803)); test: co-IP; cytoplasmic and nuclear lysates of MGC803 cells with 14-3-3σ overexpression; anti-Kaiso antibody plus protein A/G Sepharose for 8 h at 4 °C
[3] = target: T2, endogenous Kaiso (human (endogenous in MGC803)); test: co-IP; endogenous proteins, whole cell lysate of MGC803 cells (for P120ctn with and without 14-3-3σ overexpression); anti-Kaiso or other antibodies plus protein A/G Sepharose overnight at 4 °C, six washes; IgG as negative control; remark: listed apart in the source

## Flag-14-3-3ζ (from UniProt P63104 1-245)
GST-Kaiso (human)
  binding: binds

## endogenous 14-3-3ε (from UniProt P62258 1-255)
[1]
  binding: binds

## endogenous 14-3-3ζ (from UniProt P63104 1-245)
[1]
  binding: binds

## Flag-14-3-3ε (from UniProt P62258 1-255)
GST-Kaiso (human)
  binding: binds

B1: endogenous P120ctn (protein, UniProt O60716 1-968)
chain: MDDSEVESTASILASVKEQEAQFEKLTRALEEERRHVSAQLERVRVSPQDANPLMANGTLTRRHQNGRFVGDADLERQKFSDLKLNGPQDHSHLLYSTIPRMQEPGQIVETYTEEDPEGAMSVVSVETSDDGTTRRTETTVKKVVKTVTTRTVQPVAMGPDGLPVDASSVSNNYIQTLGRDFRKNGNGGPGPYVGQAGTATLPRNFHYPPDGYSRHYEDGYPGGSDNYGSLSRVTRIEERYRPSMEGYRAPSRQDVYGPQPQVRVGGSSVDLHRFHPEPYGLEDDQRSMGYDDLDYGMMSDYGTARRTGTPSDPRRRLRSYEDMIGEEVPSDQYYWAPLAQHERGSLASLDSLRKGGPPPPNWRQPELPEVIAMLGFRLDAVKSNAAAYLQHLCYRNDKVKTDVRKLKGIPVLVGLLDHPKKEVHLGACGALKNISFGRDQDNKIAIKNCDGVPALVRLLRKARDMDLTEVITGTLWNLSSHDSIKMEIVDHALHALTDEVIIPHSGWEREPNEDCKPRHIEWESVLTNTAGCLRNVSSERSEARRKLRECDGLVDALIFIVQAEIGQKDSDSKLVENCVCLLRNLSYQVHREIPQAERYQEAAPNVANNTGPHAASCFGAKKGKDEWFSRGKKPIEDPANDTVDFPKRTSPARGYELLFQPEVVRIYISLLKESKTPAILEASAGAIQNLCAGRWTYGRYIRSALRQEKALSAIADLLTNEHERVVKAASGALRNLAVDARNKELIGKHAIPNLVKNLPGGQQNSSWNFSEDTVISILNTINEVIAENLEAAKKLRETQGIEKLVLINKSGNRSEKEVRAAALVLQTIWGYKELRKPLEKEGWKKSDFQVNLNNASRSQSSHSYDDSTLPLIDRNQKSDKKPDREEIQMSNMGSNTKSLDNNYSTPNERGDHNRTLDRSGDLGDMEPLKGTTPLMQDEGQESLEEELDVLVLDDEGGQVSYPSMQKI
[2]
  binding: binds
[3]
  binding: binds

B2: Flag-14-3-3γ (protein, UniProt P61981 1-247)
chain: MVDREQLVQKARLAEQAERYDDMAAAMKNVTELNEPLSNEERNLLSVAYKNVVGARRSSWRVISSIEQKTSADGNEKKIEMVRAYREKIEKELEAVCQDVLSLLDNYLIKNCSETQYESKVFYLKMKGDYYRYLAEVATGEKRATVVESSEKAYSEAHEISKEHMQPTHPIRLGLALNYSVFYYEIQNAPEQACHLAKTAFDDAIAELDTLNEDSYKDSTLIMQLLRDNLTLWTSDQQDDDGGEGNN
GST-Kaiso (human)
  binding: binds

B3: Flag-14-3-3η (protein, UniProt Q04917 1-246)
chain: MGDREQLLQRARLAEQAERYDDMASAMKAVTELNEPLSNEDRNLLSVAYKNVVGARRSSWRVISSIEQKTMADGNEKKLEKVKAYREKIEKELETVCNDVLSLLDKFLIKNCNDFQYESKVFYLKMKGDYYRYLAEVASGEKKNSVVEASEAAYKEAFEISKEQMQPTHPIRLGLALNFSVFYYEIQNAPEQACLLAKQAFDDAIAELDTLNEDSYKDSTLIMQLLRDNLTLWTSDQQDEEAGEGN
GST-Kaiso (human)
  binding: binds weakly

B4: endogenous 14-3-3γ (protein, UniProt P61981 1-247)
chain: B2 chain
[3]
  binding: binds
